Measurements taken from patent US10548915B2, “Combination therapy for EV71 infection” (SUN JET BIOTECHNOLOGY INC., priority 2015, dated 2020).
Some of these results come from one statement about several compounds together. At least one structure is not confirmed: it was looked up by name or label, or the drawing left a doubt.

Test system: EV71 replication in RD cells
Test: anti-VP1 western blot of EV71-infected RD cells (VP1/vimentin ratio normalized to non-treated infected cells)
Assay type: cell-based, enterovirus type 71 (EV71 strain 4643/TW/1998)
Conditions: single compound at 0.5 μM, EV71 MOI 5
Experimental: Antibodies—Used antibodies included rabbit anti-VP1 (GTX70007, 1:2000, GeneTex), mouse anti-vimentin (sc-6260, 1:1000, Santa Cruz).
Cell lines, viruses and viral infection—RD (Human rhabdomyosarcoma, ATCC® CCL-136™) cells were grown in Dulbecco's modified Eagle's medium (Sigma, USA) containing 10% fetal bovine serum (Invitrogen, USA), at 5% CO2 and 37° C. EV71 strain 4643/TW/1998 (GeneBank accession number 1N544418.1) was kindly provided by Dr. Lih-Hwa Hwang at National Yang-Ming University, Taiwan. Viruses were added to RD cells which were cultured in DMEM containing 2% FBS. The newly generated viruses were titrated by cytopathology assay. For viral infection, cells were seeded at 80% confluency in 6-well dishes and grown overnight. Before challenge with viruses of 5 multiplicity of infection (MOI), old medium was replaced with serum-free medium. After 1 h adsorption of viruses, infected cells were cultured in DMEM with 10% FBS.
Western blotting—Protein extracted from RD cells were resolved with electrophoresis. Protein were blotted onto a nitrocellulose membrane eletrophoretically and incubated with indicated antibodies. The immunoreactive bands were visualized with LAS-4000 (FUJIFLIM).

## O=C(Nc1ccc([N+](=O)[O-])cc1Cl)c1cc(Cl)ccc1O [niclosamide]
  VP1 expression relative to non-treated infected cells: 0.9˜0.6

## CC(=O)OC[C@H]1O[C@@H]([S-])[C@H](OC(C)=O)[C@@H](OC(C)=O)[C@@H]1OC(C)=O.CCP(CC)CC.[Au+] [auranofin]
  VP1 expression relative to non-treated infected cells: 0.9˜0.6
